Values of other authors as cited in patent publication US6541263B2, “Determination of corticosteroids in human plasma using micromass LC/MS/MS” (Euro-Celtique, S.A. Luxembourg, priority 2001, dated 2003).
At least one compound was matched to its structure with a doubt left.

System: eosinophils
Details: IL-5-mediated survival

SMILES | inhibition of IL-5-mediated eosinophil survival
C[C@@H]1C[C@H]2[C@@H]3CCC4=CC(=O)C=C[C@]4(C)[C@@]3(F)[C@@H](O)C[C@]2(C)[C@@]1(O)C(=O)CO [Dexamethasone] | dose-dependent inhibition
C[C@H]1C[C@@H]2[C@H]([C@@H](O)C[C@@]3(C)[C@H]2CC[C@]3(O)C(=O)CO)[C@@]2(C)C=CC(=O)C=C12 [methylprednisolone] | dose-dependent inhibition
